# System: Male Sprague-Dawley rats
# Conditions: scopolamine s.c. immediately after the sampling phase; three-hour delay
smiles,measurement,value
"CN1[C@@H]2C[C@@H](OC(=O)[C@H](CO)c3ccccc3)C[C@H]1[C@@H]1O[C@@H]12 [Scopolamine, scopolamine]",retention (errors in retention session),disrupted retention after a three-hour delay in a dose-related fashion

# Reference: patent US7378447B2, “Muscarinic agonists” (Eli Lilly and Company, priority 2003, dated 2008)
